Laboratory results reported in PMC5051681.
No constants are given. Whether binding was seen depends on the method and setting.

Columns and labels:
[1] = biological target: C1a domain fused to mCer (TEV product of the C1a - 10 nm - C2 sensor) (human) (UniProt P17252); assay: SEC; analytical size exclusion of C1a - 10 nm - C2 with or without pre-incubation with TEV protease; mobile phase EGTA buffered or 300 μM free calcium; mCer and mCit fluorescence of the eluant against molecular standards; both purified
[2] = biological target: C1a domain fused to mCer (TEV product of the C1a - 10 nm - C2 sensor) (human) (UniProt P17252); assay: single-particle fluorescence microscopy (spots on glass coverslips); mCer/mCit biosensors with or without pre-treatment with TEV protease, in free calcium (300 μM); mCer and mCit channels read apart with a dual view module; both purified

binding [1]: no binding
binding [2]: no binding
Substance: C1a domain fused to mCer (TEV product of the C1a - 10 nm - C2 sensor) (from UniProt P17252 32-100) (domain or fragment)
